Measurements published in patent publication US20120195978A1, “CAPCNA PEPTIDE THERAPEUTICS FOR CANCER” (Indiana University Research and Technology Corpora, priority 2009, published 2012).
The name of at least one read-out is uncertain.

Sequences of proteins named here, by UniProt entry; tags and fusion partners are left off. A change or cut given only in a name is not applied to a line headed by its entry.
UniProt P12004: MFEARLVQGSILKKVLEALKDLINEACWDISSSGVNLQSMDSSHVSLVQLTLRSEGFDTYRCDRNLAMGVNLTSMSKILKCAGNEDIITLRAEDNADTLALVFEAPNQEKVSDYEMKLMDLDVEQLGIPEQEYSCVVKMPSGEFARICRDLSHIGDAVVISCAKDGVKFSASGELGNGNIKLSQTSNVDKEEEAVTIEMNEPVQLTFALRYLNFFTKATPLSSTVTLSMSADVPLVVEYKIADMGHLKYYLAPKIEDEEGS

Columns and labels:
[1] = test system: HCC1937 cells lacking BRCA1; assay: MTT assay, caPCNA peptides alone and in combination with cisplatin; assay type: cell-based, human; details: 60 μM peptide added simultaneously with cisplatin; HCC1937 lacking wild-type BRCA1; effect more pronounced
Description: Breast cancer cells were obtained from a patient harboring a hereditary mutation in BRCA1, a major component of DNA double strand break repair (HCC1937 cells). HCC1937 is a near-tetraploid cell line from mammary gland whose cells are homozygous for a frameshift mutation in BRCA1. The cell line is available at ATCC.
(§1) MTT [3-(4,5-dimethylthiazol-2-yl)-2,5-diphenyltetrazolium bromide] assays were conducted with caPCNA peptides at a variety of time points both alone and in combination with a DNA damaging agent e.g., cisplatin in HCC1937 and HCC1937+wild-type BRCA1 cells. […] The color can then be quantified using a simple colorimetric assay. The results are read on a multiwall scanning spectrophotometer (ELISA reader). […]
(§2) MTT assays: The efficacy of caPCNA peptides (caPeptides) were tested using the MTT assays: HCC1937 and HCC137+wildtype BRCA1 cells were grown in DMEM 1× (supplemented with 10% fetal bovine serum and 5% penicillin/streptomycin) and were plated at a densities of 5.5×10^3 or 7×10^3, respectively, in 96 well plates (100 μL total volume per well) and allowed to attach overnight in a 37° C. incubator (5% CO2). […] Plates were rocked at room temperature for five minutes to dissolve crystals and transferred to an ELISA plate reader. Absorbance was measured at 550 nm. […]

[2] = test system: HCC1937+wild-type BRCA1 cells; assay: as above; assay type: cell-based, human; details: 60 μM peptide added simultaneously with cisplatin
Description: As a genetically matched control, wild-type BRCA1 has been transduced into HCC1937 cells (referred to as HCC1937+wild-type BRCA1). HCC1937+wild-type BRCA1 cells were selected for maintenance of the vector using 1 μg/mL puromycin. All cells in these assays were used at passage numbers <25.
as §1, §2

caPCNA peptide: caPCNA-derived peptide (aa 126-133) obtained from Anaspec; the figure legends call it R9-caPCNA / R9-PCNA peptide (LGIPEQEY; R9 (nonaarginine) linked; UniProt P12004 126-133, looked up, fragment)
Effect of peptide on IC50 of cisplatin [1]: lowered the IC50 of cisplatin | Effect of peptide on IC50 of cisplatin [2]: lowered the IC50 of cisplatin
